{"source": "patent US5225543A", "about": "“Receptors method for purification of G protein-linked” (priority 1991, dated 1993)", "test_system": "streptavidin", "test": "Effect of detergent on binding of solubilized R:L complex to streptavidin (Table 2B)", "settings": "final column of Table 2B", "protocol": "The final determination is whether the detergent interferes with binding of the receptor:[^125 I]BioS-28. […] R:L complex in the supernatants (\"non-bound to SA\") after this time is measured by the charcoal/dextran assay. The % of non-bound, intact R:L complex is calculated from the ratio (R:L non-bound to SA/original R:L in the 100,000×g supernatant). The % of intact R:L complex bound to SA is calculated by subtracting % non-bound R:L from 100%. Finally, % of original R:L bound to SA=% R:L bound to SA×% solubilization of original membrane-bound R:L complex."}
{"compound": "C[C@@H]1CC[C@@]2(OC1)O[C@H]1[C@@H](O)[C@H]3[C@@H]4CC[C@H]5C[C@@H](O[C@@H]6O[C@H](CO)[C@H](O[C@@H]7O[C@H](CO)[C@@H](O)[C@H](O[C@@H]8OC[C@@H](O)[C@H](O)[C@H]8O)[C@H]7O[C@@H]7O[C@H](CO)[C@H](O)[C@H](O[C@@H]8O[C@H](CO)[C@@H](O)[C@H](O)[C@H]8O)[C@H]7O)[C@H](O)[C@H]6O)[C@H](O)C[C@]5(C)[C@H]4CC[C@]3(C)[C@H]1[C@@H]2C", "note": "[Digitonin]", "values": [{"measurement": "overall efficiency in recovering receptor", "result": "satisfactory results"}]}
{"compound": "C[C@H](CCC(=O)O)[C@H]1CC[C@H]2[C@@H]3CC[C@@H]4C[C@H](O)CC[C@]4(C)[C@H]3C[C@H](O)[C@]12C", "note": "[Deoxycholate]", "values": [{"measurement": "overall efficiency in recovering receptor", "result": "satisfactory results"}]}
